Measurements taken from article PMC7732823.
Where two headings read alike, the source gives them in different places. Results are given in words; binding and its absence hold for the method and conditions named. Binding seen in cells or lysates may run through a third protein. Some binding calls cover weakened binding; strength is not graded here.

Amino acid sequences for entries named in this document (tags omitted). A change or cut given only in a name is not applied to a line headed by its entry. Residues count along the entry.
UniProt P25490: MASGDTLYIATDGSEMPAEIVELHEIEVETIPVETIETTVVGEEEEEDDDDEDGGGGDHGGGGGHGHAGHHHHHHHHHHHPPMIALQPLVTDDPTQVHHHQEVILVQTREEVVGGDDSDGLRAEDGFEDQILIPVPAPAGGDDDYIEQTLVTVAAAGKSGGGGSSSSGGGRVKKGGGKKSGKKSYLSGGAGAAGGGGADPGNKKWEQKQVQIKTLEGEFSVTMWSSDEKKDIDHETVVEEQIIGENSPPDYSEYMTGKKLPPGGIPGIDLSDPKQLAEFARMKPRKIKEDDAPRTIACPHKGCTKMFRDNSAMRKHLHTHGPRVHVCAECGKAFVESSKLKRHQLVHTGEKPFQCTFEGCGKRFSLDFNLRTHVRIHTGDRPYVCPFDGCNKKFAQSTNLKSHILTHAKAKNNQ
UniProt Q8VIM5: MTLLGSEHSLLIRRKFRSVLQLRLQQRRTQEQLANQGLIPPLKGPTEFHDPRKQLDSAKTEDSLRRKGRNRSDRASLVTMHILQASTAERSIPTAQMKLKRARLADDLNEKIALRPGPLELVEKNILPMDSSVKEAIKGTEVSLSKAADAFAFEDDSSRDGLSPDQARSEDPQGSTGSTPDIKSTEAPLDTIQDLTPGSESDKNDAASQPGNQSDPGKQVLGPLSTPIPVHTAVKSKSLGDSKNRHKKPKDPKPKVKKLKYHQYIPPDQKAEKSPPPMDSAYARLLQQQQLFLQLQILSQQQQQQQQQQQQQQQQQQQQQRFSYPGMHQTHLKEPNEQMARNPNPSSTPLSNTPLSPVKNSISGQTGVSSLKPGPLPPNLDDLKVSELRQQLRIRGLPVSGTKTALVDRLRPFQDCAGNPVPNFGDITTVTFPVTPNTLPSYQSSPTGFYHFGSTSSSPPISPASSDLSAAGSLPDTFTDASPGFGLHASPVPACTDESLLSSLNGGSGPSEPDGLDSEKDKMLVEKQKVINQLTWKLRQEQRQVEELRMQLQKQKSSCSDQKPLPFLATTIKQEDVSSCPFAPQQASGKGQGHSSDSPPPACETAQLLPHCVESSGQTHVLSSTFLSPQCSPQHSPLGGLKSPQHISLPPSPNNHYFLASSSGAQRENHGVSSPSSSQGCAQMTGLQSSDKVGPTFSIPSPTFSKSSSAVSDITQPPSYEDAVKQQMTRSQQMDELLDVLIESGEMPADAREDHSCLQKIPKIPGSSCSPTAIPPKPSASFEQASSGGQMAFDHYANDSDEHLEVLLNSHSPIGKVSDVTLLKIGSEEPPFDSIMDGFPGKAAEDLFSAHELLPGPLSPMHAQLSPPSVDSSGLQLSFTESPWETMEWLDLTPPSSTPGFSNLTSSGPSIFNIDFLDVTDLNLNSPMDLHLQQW
MYOCD(1–350)-GST: residues 1-350 of Q8VIM5
MYOCD-truncation GST fusion protein (1–220): residues 1-220 of Q8VIM5
MYOCD-truncation GST fusion protein (221–350): residues 221-350 of Q8VIM5

Columns and labels:
[1] = target: GST-YY1 (UniProt P25490); assay: pull-down; GST fusion protein or GST on glutathione-agarose beads incubated for 2 h with bacterially expressed T7 fusion protein in PBS with 1% Triton X-100, 1 mg/ml BSA and protease inhibitors; washed 3 times; Western blot with anti-T7
[2] = target: MYOCD-truncation GST fusion protein (1–220) (UniProt Q8VIM5); assay: as above
[3] = target: MYOCD-truncation GST fusion protein (221–350) (UniProt Q8VIM5); assay: as above
[4] = target: MYOCD(1–350)-GST (UniProt Q8VIM5); assay: pull-down; competitive GST pull-down: MYOCD(1-350)-GST on glutathione-agarose beads with T7-YY1 and increasing amounts of T7-SRF(1-222); PBS with 1% Triton X-100, 1 mg/ml BSA; Western blot with YY1 or SRF antibodies
[5] = target: MYOCD(1–350)-GST (UniProt Q8VIM5); assay: as above; remark: listed apart in the source

Molecule: T7 tagged full-length MYOCD (from UniProt Q8VIM5 1-935)
- binding [1]: binds

Molecule: T7-tagged YY1 (from UniProt P25490 1-414)
- binding [2]: binds
- binding [3]: binds
- binding [4]: binds

B1: T7-SRF(1-222aa) (domain or fragment, UniProt P11831 1-222)
chain: MLPTQAGAAAALGRGSALGGSLNRTPTGRPGGGGGTRGANGGRVPGNGAGLGPGRLEREAAAAAATTPAPTAGALYSGSEGDSESGEEEELGAERRGLKRSLSEMEIGMVVGGPEASAAATGGYGPVSGAVSGAKPGKKTRGRVKIKMEFIDNKLRRYTTFSKRKTGIMKKAYELSTLTGTQVLLLVASETGHVYTFATRKLQPMITSETGKALIQTCLNSP
- binding [5]: binds
